{"source": "PubChem BioAssay AID686938 (Drosophila RNAi Screening Center, 2013)", "assay": "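Fly genes required for calcium entry once internal stores are emptied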 (primary screen)", "system": "Drosophila S2R+ cells", "knock-down reagent": "long dsRNA against Drosophila genes, about 0.25 µg dsRNA per well, roughly 10,000 cells", "time to read-out": "5 days of knock-down before the calcium assay", "treatment": "thapsigargin (SERCA pump blocker) to empty calcium stores; entry signal taken 4 min after adding it", "measured": "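Per-well fluo-4 fluorescence in two replicates, unnormalised, measured in resting cells and 4 min after store depletion by the SERCA blocker thapsigargin; ratio of the two present in few wells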", "direction": "calcium entry signal: higher = stronger calcium signal after store depletion; entry to resting ratio: higher = more calcium entry relative to resting level; resting calcium signal: higher = higher resting calcium signal", "rule for the call": "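Called when the plate z-score of the entry-to-rest ratio, mean of duplicates, falls below −3; wells with low overall dye signal (Fmax z below −2) or more than five off-targets excluded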", "meaning of the calls": "active = strongly reduced calcium entry; inactive = no strong reduction", "note": "The screen tested about 23,000 reagents; this is a random part of those with a known target gene and a result. Of all reagents, 75 (0.33%) were called active. 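Raw plate signals without normalisation; calls rest on plate z-scores that were not deposited; ratio present for only 364 wells.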 Unmarked entries are inactive. The numbers tell different reagents against one gene apart. Reagent sequences are not shown. The record does not give: the dose of the treatment."}
{"gene": "Dhc16F", "reagent no.": 1, "calcium entry signal, replicate 1 (fluorescence units)": 3.38e7, "calcium entry signal, replicate 2 (fluorescence units)": 3.56e7, "resting calcium signal, replicate 1 (fluorescence units)": 1.72e7, "resting calcium signal, replicate 2 (fluorescence units)": 1.60e7}
{"gene": "tej", "reagent no.": 1, "calcium entry signal, replicate 1 (fluorescence units)": 2.46e7, "calcium entry signal, replicate 2 (fluorescence units)": 2.98e7, "resting calcium signal, replicate 1 (fluorescence units)": 1.25e7, "resting calcium signal, replicate 2 (fluorescence units)": 1.27e7}
{"gene": "CG4612", "reagent no.": 1, "calcium entry signal, replicate 1 (fluorescence units)": 3.53e7, "resting calcium signal, replicate 1 (fluorescence units)": 1.95e7}
{"gene": "CG17777", "reagent no.": 1, "calcium entry signal, replicate 1 (fluorescence units)": 3.84e7, "calcium entry signal, replicate 2 (fluorescence units)": 5.53e7, "entry to resting ratio": 2, "resting calcium signal, replicate 1 (fluorescence units)": 1.93e7, "resting calcium signal, replicate 2 (fluorescence units)": 2.49e7}

Next part (2 carried over from the part before).
{"gene": "CG4612", "reagent no.": 1, "calcium entry signal, replicate 1 (fluorescence units)": 3.53e7, "resting calcium signal, replicate 1 (fluorescence units)": 1.95e7}
{"gene": "CG17777", "reagent no.": 1, "calcium entry signal, replicate 1 (fluorescence units)": 3.84e7, "calcium entry signal, replicate 2 (fluorescence units)": 5.53e7, "entry to resting ratio": 2, "resting calcium signal, replicate 1 (fluorescence units)": 1.93e7, "resting calcium signal, replicate 2 (fluorescence units)": 2.49e7}
{"gene": "Tmhs", "reagent no.": 1, "calcium entry signal, replicate 1 (fluorescence units)": 4.63e7, "calcium entry signal, replicate 2 (fluorescence units)": 4.37e7, "resting calcium signal, replicate 1 (fluorescence units)": 2.07e7, "resting calcium signal, replicate 2 (fluorescence units)": 1.97e7}
{"gene": "CG11741", "reagent no.": 1, "calcium entry signal, replicate 1 (fluorescence units)": 4.22e7, "calcium entry signal, replicate 2 (fluorescence units)": 2.89e7, "resting calcium signal, replicate 1 (fluorescence units)": 2.11e7, "resting calcium signal, replicate 2 (fluorescence units)": 1.56e7}
{"gene": "CG3701 (retired record)", "reagent no.": 1, "calcium entry signal, replicate 1 (fluorescence units)": 2.35e7, "calcium entry signal, replicate 2 (fluorescence units)": 2.24e7, "resting calcium signal, replicate 1 (fluorescence units)": 1.26e7, "resting calcium signal, replicate 2 (fluorescence units)": 1.11e7}
{"gene": "CG3701 (retired record)", "reagent no.": 2, "calcium entry signal, replicate 1 (fluorescence units)": 2.41e7, "calcium entry signal, replicate 2 (fluorescence units)": 2.42e7, "resting calcium signal, replicate 1 (fluorescence units)": 1.30e7, "resting calcium signal, replicate 2 (fluorescence units)": 1.07e7}
{"gene": "G6P", "reagent no.": 1, "calcium entry signal, replicate 1 (fluorescence units)": 3.54e7, "calcium entry signal, replicate 2 (fluorescence units)": 5.44e7, "resting calcium signal, replicate 1 (fluorescence units)": 1.67e7, "resting calcium signal, replicate 2 (fluorescence units)": 2.18e7}
{"gene": "HUWE1", "reagent no.": 1, "calcium entry signal, replicate 1 (fluorescence units)": 2.89e7, "calcium entry signal, replicate 2 (fluorescence units)": 3.35e7, "resting calcium signal, replicate 1 (fluorescence units)": 1.55e7, "resting calcium signal, replicate 2 (fluorescence units)": 1.43e7}
{"gene": "CG1142", "reagent no.": 1, "calcium entry signal, replicate 1 (fluorescence units)": 5.77e7, "calcium entry signal, replicate 2 (fluorescence units)": 4.96e7, "resting calcium signal, replicate 1 (fluorescence units)": 2.46e7, "resting calcium signal, replicate 2 (fluorescence units)": 2.11e7}
{"gene": "CG6138", "reagent no.": 1, "calcium entry signal, replicate 1 (fluorescence units)": 3.74e7, "calcium entry signal, replicate 2 (fluorescence units)": 4.50e7, "resting calcium signal, replicate 1 (fluorescence units)": 1.68e7, "resting calcium signal, replicate 2 (fluorescence units)": 1.90e7}
